Values quoted from earlier work, collected in patent US20070265223A1, “COMPOSITIONS AND METHODS OF ENHANCING SURVIVABILITY AND REDUCING INJURY OF CELLS, TISSUES, ORGANS, AND ORGANISMS UNDER HYPOXIC OR ISCHEMIC CONDITIONS” (IKARIA, INC., priority 2006, published 2007).
At least one compound was matched to its structure with a doubt left.

Test system: equilibrative insensitive or ei-type transporters
Settings: NBMPR concentrations below 1 μM; cited from earlier work

O=[N+]([O-])c1ccc(CSc2ncnc3c2ncn3C2OC(CO)C(O)C2O)cc1 (stereo not shown) [NBMPR, nitrobenzylthioinosine]
effect on transporter: not much affected
